Values quoted from earlier work, collected in patent US6699825B2, “Acidic hard-surface antimicrobial cleaner” (S.C. Johnson & Son, Inc., priority 2001, dated 2004).
Some entries share one result that the patent states for a list of compounds.

Settings: in water at 25° C.; cited from earlier work

In the case of `OCCOc1ccccc1` [Eph, Ethylene Glycol Phenyl Ether], the solubility in water is given as “less than 10 percent by weight”.
